The list shows a part of the results. Values are raw readings; no control value is given beside them.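 First-pass screen: polymyxin B was added at a level that permeabilizes the Salmonella outer membrane while sparing the inner membrane. DMSO wells, with and without polymyxin B, defined maximum growth. Because plates differed from one another, each plate's data were ranked separately and the compounds with the lowest OD600 were carried forward as hits.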
System: Salmonella enterica serovar Typhimurium SL1344
Test: bacterial growth OD600 after 18 h with compound and polymyxin B; higher = more bacterial growth (less inhibition)
Conditions: 50 µM, Mueller-Hinton broth

C=CCn1cc(CN2C[C@H]3OC(=O)N(Cc4ccccn4)[C@H]3C2)c(C)n1
bacterial growth OD600 (polymyxin B 0.75 µg/mL): 0.822

COc1ccc([C@@H](C)NC(=O)CCC2(Cc3ccc(C)cc3)CCC(=O)N2)cc1 (stereo partly specified)
bacterial growth OD600 (polymyxin B 0.75 µg/mL): 0.769

COc1ccc(CN2C[C@@H]3C[C@@H](c4ccc(C)c(C)c4)N4CCC[C@@]34C2=O)cc1
bacterial growth OD600 (polymyxin B 0.75 µg/mL): 0.79

COc1ccc(C(=O)NC2CC2)c(OC2CCN(Cc3ccc(C)s3)CC2)c1
bacterial growth OD600 (polymyxin B 1 µg/mL): 0.787

C=CCN(CC=C)C(=O)CC1(c2ccccc2OC)CC(=O)N(CCCOC)C1=O (stereo unspecified)
bacterial growth OD600 (polymyxin B 0.75 µg/mL): 0.967

COC(=O)c1ccc(CN2CCCCC2C(=O)Nc2ccc(-n3cnnn3)cc2)cc1 (stereo unspecified)
bacterial growth OD600 (polymyxin B 1 µg/mL): 1.03

COc1cc(CN2CCC(n3nccc3NC(=O)c3ccccc3OC)CC2)ccc1F
bacterial growth OD600 (polymyxin B 1 µg/mL): 0.912

COc1ccc(C(=O)NC2CC2)c(OC2CCN(Cc3ccccc3Cl)CC2)c1
bacterial growth OD600 (polymyxin B 0.75 µg/mL): 0.634

CCN(Cc1ccccc1)C(=O)Cn1nnnc1CN1CCCC1
bacterial growth OD600 (polymyxin B 0.75 µg/mL): 0.869

COCCn1cc(C(=O)NCC2(c3ccccc3)CCCC2)c(=O)c(C(=O)N(C)C2CCCCC2)c1
bacterial growth OD600 (polymyxin B 0.75 µg/mL): 0.009

COc1ccc(N2CCN(C3CCCN(C(=O)CCn4ccnc4C)C3)CC2)cc1 (stereo unspecified)
bacterial growth OD600 (polymyxin B 1 µg/mL): 0.861

COc1ccccc1OCc1cc(C(=O)N(C)CC2Cc3ccccc3O2)n[nH]1 (stereo unspecified)
bacterial growth OD600 (polymyxin B 1 µg/mL): 0.848

CSCCCNC(=O)C1CCC(=O)N(CCCN2CCOCC2)C1 (stereo unspecified)
bacterial growth OD600 (polymyxin B 1 µg/mL): 0.799

COc1cccc(OC)c1C(=O)N1CCCC(N2CCN(c3ccccc3F)CC2)C1 (stereo unspecified)
bacterial growth OD600 (polymyxin B 0.75 µg/mL): 0.781

COc1ccc(C(=O)NC2CC2)c(OC2CCN(CCCn3cccn3)CC2)c1
bacterial growth OD600 (polymyxin B 1 µg/mL): 1

Fc1ccccc1CC1CCN(Cc2nc(-c3cccs3)no2)CC1
bacterial growth OD600 (polymyxin B 1 µg/mL): 0.711

Cc1nc2ccccn2c1CN(C)C(=O)CC1(c2cccc(C(F)(F)F)c2)CC(=O)N(C2CC2)C1=O (stereo unspecified)
bacterial growth OD600 (polymyxin B 0.75 µg/mL): 0.611

O=C(CCC1CCCN(C(=O)CCN2CCCC2=O)C1)Nc1ccc(C(F)(F)F)cc1 (stereo unspecified)
bacterial growth OD600 (polymyxin B 1 µg/mL): 0.993

CSc1ccccc1N1C(=O)CN(C(=O)c2ccccc2)CC1C (stereo unspecified)
bacterial growth OD600 (polymyxin B 0.75 µg/mL): 0.843

Cc1cnc(SCCN2CCOCC2)nc1C1CCCN(C(=O)Cc2ccc3c(c2)OCO3)C1 (stereo unspecified)
bacterial growth OD600 (polymyxin B 0.75 µg/mL): 0.987

O=C(Cn1cc(NC(=O)CCOc2ccccc2)cn1)NCCCn1nnc2ccccc21
bacterial growth OD600 (polymyxin B 0.75 µg/mL): 0.825

CCC1CCCCN1C(=O)CC1(c2ccccc2OC)CC(=O)N(C)C1=O (stereo unspecified)
bacterial growth OD600 (polymyxin B 0.75 µg/mL): 0.844

COc1cccc(-c2noc(-c3ccc(NCCSC)nc3)n2)c1OC
bacterial growth OD600 (polymyxin B 1 µg/mL): 0.656

Fc1ccccc1-n1cc(CNC2CCCc3c2cnn3-c2ccccn2)cn1 (stereo unspecified)
bacterial growth OD600 (polymyxin B 0.75 µg/mL): 0.813

COc1ccc(-c2ccccc2NC(=O)C2CCCN(C3CCOCC3)C2)cc1 (stereo unspecified)
bacterial growth OD600 (polymyxin B 0.75 µg/mL): 0.822

FC(F)(F)C(Nc1nc2nonc2nc1N1CCSCC1)c1ccccn1 (stereo unspecified)
bacterial growth OD600 (polymyxin B 0.75 µg/mL): 0.654

CCCc1cc(C(=O)N2CCc3c(cnc(C)c3CNS(=O)(=O)c3cccs3)C2)n(C)n1
bacterial growth OD600 (polymyxin B 0.75 µg/mL): 0.787

Cc1ccccc1CC1(CO)CCCN(Cc2nc(-c3cccs3)oc2C)C1 (stereo unspecified)
bacterial growth OD600 (polymyxin B 1 µg/mL): 0.606

C=CCC(=O)N1CCC2(CCCN(CC3CC3)C2=O)C1 (stereo unspecified)
bacterial growth OD600 (polymyxin B 1 µg/mL): 1.15

Cc1ccc2c(c1)CN(Cc1ccc(OCCO)cc1)CC(c1ccsc1)O2 (stereo unspecified)
bacterial growth OD600 (polymyxin B 0.75 µg/mL): 0.085

CCC1(C2CCN(C(=O)[C@H]3C[C@@H]4C=C[C@H]3C4)CC2)NC(=O)N(Cc2ccc3c(c2)OCO3)C1=O (stereo partly specified)
bacterial growth OD600 (polymyxin B 0.75 µg/mL): 0.774
